Data published in article PMC7250872, “Repression of the lysogenic PR promoter in bacteriophage TP901-1 through binding of a CI-MOR complex to a composite OM-OR operator” (Scientific Reports, 2020).
These are yes or no findings as the source states them, for the method shown. Where a sequence is shown, tags or fusion partners need not be part of it.

Biological target: CI-NTD89-His6 (CI N-terminal domain 1-80 plus linker 81-89) (bacteriophage TP901-1) (UniProt O48503)
Test: SEC; Superdex 75 Prep Grad, 20 mM Tris, 100 mM NaCl, pH 7.4; each protein run alone (CI-NTD89-His6 38 uM, MOR 10 uM); both purified

B1: CI-NTD89-His6 (CI N-terminal domain 1-80 plus linker 81-89) (domain or fragment, UniProt O48503 1-89)
chain: MKTDTSNRLKQIMAERNLKQVDILNLSIPFQKKFGIKLSKSTLSQYVNSVQSPDQNRIYLLAKTLGVSEAWLMGFDVPMVESSKIENDS
Which binding does the source give for B1 here?
Its binding is “no binding (tested: 38 μM)”.
